Measured values: the supplement of paper PMC5949888
Most values lie at the floor of the assay. Slopes are relative: functional sequences can read slightly below zero.

System: Saccharomyces cerevisiae PS128 hsf1 delta, HSF1(1-493) fusion
Test: growth estimate (transactivation domain function in HSF1 fusion, heat-shock survival) (a.u. (slope of normalised read count over time)); higher = stronger growth at 37°C, i.e. more transactivation activity
Settings: library: random library

Substance	growth estimate
LRFEVPGPLESLVGIGVTTA	< -0.25
GESRGWI	< -0.25
KIYLIVSRISH	< -0.25
GGETRNHA	< -0.25
LCCGDSRRRRHIQVDRSESR	< -0.25
ESPTLLTDSGIRI	< -0.25
TRYALLSPQKRFRSVR	< -0.25
VTSS	< -0.25
YFLHWSGFHLG	< -0.25
NNKLVPVIGLVSGTTTGVLR	< -0.25
RTLMLSVYPMRLKLVIPLWE	< -0.25
IQLPVRTARAQKVKVYHASV	< -0.25
RWSTGARVPCPGQIYHFLAS	< -0.25
STKFVTCRCSVIR	< -0.25
YNEGRNLDGGSICDCSILRP	< -0.25
VSGRGLWAIRNSQPKIGGRA	< -0.25
CPGKLFFRTDDNTGGGCRES	< -0.25
RTRGVRGLAFSMKGTTRQLG	< -0.25
VKLLIARGDRLAAMPRNGYA	< -0.25
IVTTTTMLPGMALVWSEPNI	< -0.25
PPLSSMSRSCVIRVGRA	< -0.25
VQLAGEHSHVCCGG	< -0.25
STSGPGGWRAITKRGMHRSQ	< -0.25

Substance	growth estimate
LRCAK	< -0.25
GRDSSDHRPQAPDVPSL	< -0.25
ALVDGRVE	-0.2
QVYNSARLVGH	< -0.25
QGKEDSAAMPYARVPRLVPT	< -0.25
LLFFE	-0.25
AMRGVSTAVNESSVYAEIG	< -0.25
AFLSDASSRSGKPHRWRTRQ	< -0.25
ADCSVACTDDHSFAPPTFHR	< -0.25
SIAEDTMDMWAGWYLPRYPA	-0.0713
ELVSVRQPVIVSQARLIKSH	< -0.25
CQSSSV	< -0.25
SMSRSAPEFSGGLGHSEERF	< -0.25
VRTWRRCTRIRWC	< -0.25
ILFLFFAHEFGAAGHCASVY	< -0.25
TIVG	< -0.25
GATYTF	< -0.25
KFQERKHRVVLVYQVTNET	-0.243
SQIGSVIR	< -0.25
GAIEIFSRGSNAHSPRDV	< -0.25
RWQDP	< -0.25
NRRRL	< -0.25
RECPMSVQWVRHINRASPTR	< -0.25

Substance	growth estimate
ARYGC	< -0.25
GVGDYQSVTSFSQSSLNKI	-0.246
VCNVRGGSEKVHP	-0.231
NGQYDLCWGVERLRGEALIA	< -0.25
YKTSVL	< -0.25
LGWI	< -0.25
GIEW	< -0.25
NQTAAGYMRPTSSGGIAI	< -0.25
CRVPADVFTLGVRS	< -0.25
SEAGRYSLAKTISTIGGVGA	< -0.25
IYLCEMLVW	< -0.25
SVLRE	< -0.25
VGIMS	< -0.25
TIPAMLSMWHEKAWLRTSHK	-0.246
WGKIRLWNNLLTEYDLMRGR	< -0.25
LPSIRHRQGIGVVLFSELPA	< -0.25
VSDYDSRGREPVVQGSAHKC	< -0.25
VQYLGLRVDDVEL	< -0.25
ESFQLKTSSR	< -0.25
RMYASPQGID	< -0.25
CGRK	< -0.25
ATCIYT	< -0.25
RIAAFSWRFFLPLRFITTCH	< -0.25

Substance	growth estimate
VGLHSSLGPIWQRYEVSLER	< -0.25
GWIRTTKGSIRYSVSYKVML	< -0.25
LDLRLESLRLLSRM	< -0.25
ALNTTPL	< -0.25
RMYASRDLTKRALRCQFGTC	< -0.25
DLGNSMDIARYTVSAGEEIG	< -0.25
LFPLYLGILIRRIERAVSGA	< -0.25
EKIGSPCK	-0.245
VAADQILSPFPSLTFCQKST	< -0.25
LRWERETGFAL	< -0.25
TRVRPVGGGVTRHLFLTRAP	< -0.25
FRGKTQRLARGHISYMMRYH	< -0.25
DLKIVGLTPA	< -0.25
VDGILSIAHPVW	< -0.25
PVAFRPILY	< -0.25
RWQHFVYSGRVRNRVALMGR	< -0.25
TQYHCLLDSCKHKSPAYFMG	< -0.25
YGWANSYMVP	< -0.25
PGVLSPIIRGQVRSRGGART	< -0.25
RLAG	< -0.25
EKLWG	< -0.25
PSNSPYRCIDGFFRECPGYS	< -0.25
RKRSF	< -0.25

Substance	growth estimate
KTLSSPWFIRLRFPGKQFR	< -0.25
IYVVWGSHNQVS	-0.246
TCPRSLAS	< -0.25
NLGSTLSDLEYVCFGGYDYS	353
AMSTINGRSSLKGARGPSQS	< -0.25
RYRCLGGLLTGKGVETGRDV	< -0.25
SGVWESAHVARRDIIHSMGG	< -0.25
YSPAAE	< -0.25
VPTHERYPTSGGGVAQNTTT	< -0.25
IAPLTLLGNAEPVCVHSLIP	< -0.25
VPREE	< -0.25
VGALLGGMGFSSMSHPDFFG	< -0.25
RICGG	< -0.25
LLTK	< -0.25
ITYLRVVPLTYLESMSPRVA	< -0.25
REQEWRHRARTREVRKRAAA	< -0.25
TDEKNKCLWSLRRKNYA	< -0.25
RQTS	< -0.25
QNVWSRAREAGRRRPRRCAH	< -0.25
APIGGILWLAGRICLGCAGL	< -0.25
VRVPRIASIYSACHLGPQLD	< -0.25
GQSTGPFTCTIANFLSGLA	< -0.25
RLEGLC	< -0.25

Taken from the entries so far (4 entries):
Substance	growth estimate
VPREE	< -0.25
VGALLGGMGFSSMSHPDFFG	< -0.25
RICGG	< -0.25
LLTK	< -0.25

Exported with each value named: part of the list above
VPTHERYPTSGGGVAQNTTT
  growth estimate: < -0.25
IAPLTLLGNAEPVCVHSLIP
  growth estimate: < -0.25
VPREE
  growth estimate: < -0.25
VGALLGGMGFSSMSHPDFFG
  growth estimate: < -0.25

Next entries follow:

Substance	growth estimate
KFGVSKYDDSYLLSTTFGTV	< -0.25
ERNYRRNVFVVSSNCTILLR	< -0.25
LYQR	< -0.25
RLLPGGSES	< -0.25
NVLR	< -0.25
IEKAVTHTPNDINEMDMN	< -0.25
QSTGTAIQL	< -0.25
GLSYTNCLA	< -0.25
RVSPPSSQVILNLSAFCEVA	< -0.25
RICGVIGLAPAYGFFDRVLA	< -0.25
VWTREEVQRVLEIRSS	< -0.25
RRPLGMGH	< -0.25
QLCEIKGIIPNI	< -0.25
SLTPVFVLRQVFVLYNSRDH	< -0.25
LQNLSIRFRSRGTVFARLRP	< -0.25
YYNTRSLLRER	< -0.25
CVDPGGRV	< -0.25
RKVAPFRSSGCLGEVKRAFA	< -0.25
LGTLSTTN	< -0.25
PGRAPSFAANHPARIRERTQ	< -0.25
RGRISPDLLMSAKETGQRTR	< -0.25
YMHHRNSQGTNLTDWHLFWP	< -0.25
SNSSLQLNGIPMSDGSSL	< -0.25

Substance	growth estimate
NPALCPAVR	< -0.25
LEEIRFHLEVLSGHELSDFR	-0.123
YVSKIGCFTMR	< -0.25
PVFWSIWGWRQGSGAPRIRR	< -0.25
MGAQP	< -0.25
ELDICCR	< -0.25
CDISIRTWPGEIQ	< -0.25
SSLTPGGVACLGRHAGNAVH	< -0.25
GNNQSVRSV	< -0.25
EEQDGHPEAILNRAVQQAAT	< -0.25
PSVFSPGDQSRTGGV	< -0.25
LDIRDVGKSSSRTRGL	-0.229
YEYRSLSELQQVFVFSVPMR	< -0.25
VRWVASGGG	< -0.25
VAVSEGQIRPIGPLTCNTSG	< -0.25
SDNRGHDGRTIS	< -0.25
NNLRENAADVRPVVGVRLSA	-0.243
RGCMRRRIKKSLNLPLLAGM	< -0.25
HISGVRVILFYG	< -0.25
GGGSSPVRA	< -0.25
RDLKYSSTRKCRTHMHLLIP	< -0.25

Reformatted comma-delimited: entries from further up.
Substance,growth estimate
GNNQSVRSV,< -0.25
EEQDGHPEAILNRAVQQAAT,< -0.25
